Reference: publication PMC10795234
Results are given in words; binding and its absence hold for the method and conditions named. In cells and extracts the contact can be indirect. Some binding calls cover weakened binding; strength is not graded here.

Protein sequences, listed by entry. Tags and fused reporters are not part of them.
UniProt Q12905: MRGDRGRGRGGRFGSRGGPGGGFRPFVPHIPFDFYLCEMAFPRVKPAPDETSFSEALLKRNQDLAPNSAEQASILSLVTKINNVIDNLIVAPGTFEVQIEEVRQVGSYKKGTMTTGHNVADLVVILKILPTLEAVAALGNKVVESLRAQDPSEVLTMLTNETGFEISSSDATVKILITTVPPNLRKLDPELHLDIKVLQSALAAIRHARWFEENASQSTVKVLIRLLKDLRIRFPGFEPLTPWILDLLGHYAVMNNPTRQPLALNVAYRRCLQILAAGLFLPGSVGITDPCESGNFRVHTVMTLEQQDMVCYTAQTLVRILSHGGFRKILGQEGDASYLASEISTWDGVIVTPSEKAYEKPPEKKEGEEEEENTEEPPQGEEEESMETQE

Biological target: Heterogeneous nuclear ribonucleoprotein K (human (endogenous in MDA-MB-231 and BT-549)) (UniProt P61978)
Assay: co-IP; endogenous proteins; 10^7 TNBC cells lysed in NP40 with protease inhibitors; lysates with protein A/G agarose and anti-HNRNPK or anti-ILF2 (IgG as control) at 4 °C overnight; washed with PBST; Western blot; also in cells with LINC00571 overexpression (binding increased) or knockdown (binding decreased)

binding: binds
Substance: ILF2 (from UniProt Q12905 1-390)
